Experimental data: PMC7929561

B1: Sec5 (protein, UniProt Q9VQQ9 1-894)
chain: MAPQPVVTGLSPKEGPPGTRVIIRGEFLGTRVQDLIGLKICGSDCLLSAEWKSPNKIIARTGPAKGKGDIIVTTLSGGVGTSTVQFRAYHETIGPLKESAVWIEESPSQNFAWGRRTLAQSGLTQEDPLGLSIEGNEQKIPEDLRDLFPEACGDLSQEHFSPAWFLLENHLATSFEDLKAGLSYLKRKVESQKEGQLSFLKSNAGSVIDQLDTLMNIRDKLQEDVKLHGNETLNILETSIENSISESQKIFTDVLVRKEKADSTRSVLFALSRHKFLFCLPNSVDRRAKAGEYDIVVNDYSRAKNLFGKTEIPIFRKVLEEVDHRILSIRKQLHEKVVKMPQSVEQQKKLIKALISLELQQSGTPIGDKLRNIDPAWDAIEARAKYLEWTFRQTFDQHTSKDSGAQEKAKNRDSSQAPNRVNFCEELCDIAASQLPDLWRLGQLYFTGELRGPHDPKPGDFKRMVLNAIEKFCVYLRLAILIATDQRALRQSSGLAWPIGSASATHQFLPWIPQCLRFTRIAYATLISLDLPSEALDIIQKLIDEVRLFCFSIIFKRATDRCKKLGSQETWELGVEEYPGATLLPAALETLLIETLDEVQSVCMQRETREGNLLEPQSDGQREVTQRLQEFLSAFSAVIEELAFHSHDEETPTHNVSQLLGFPNAQQPDSVAGSGGAAAVTWEQRMLCCLANYAYCNKIFFPRLGDIFVRYGYPLPTLAIETARYTVNQLFTNLLEEYVEHKGDPLVGTIEPSMYLGRFQWDHEMEIGQLRPYAHECCDNLVGVYSEIYSISPALLRPILESIVQTISEELARLMSCVQRFSFTGAIQAHVDIRLLRDSLEGYVNETAKNYFMEALEAINPPLSGEQKRKADEILERVKRNMRLQLLCFSVKDP
B2: Amphiphysin (Amph) (protein, UniProt Q7KLE5 1-602)
chain: MTENKGIMLAKSVQKHAGRAKEKILQNLGKVDRTADEIFDDHLNNFNRQQASANRLQKEFNNYIRCVRAAQAASKTLMDSVCEIYEPQWSGYDALQAQTGASESLWADFAHKLGDQVLIPLNTYTGQFPEMKKKVEKRNRKLIDYDGQRHSFQNLQANANKRKDDVKLTKGREQLEEARRTYEILNTELHDELPALYDSRILFLVTNLQTLFATEQVFHNETAKIYSELEAIVDKLATESQRGSNTLRKQTSNPIKTSSPVQSPVNKLNNANINSNYQNQITTNGGSSLANSPTSTSSSLQEPRFDSVSSTPEPRPESPAAALVSATPSSPVENGVTTKSLERPELSGLNASAKATTTTQTSPTEDKAVVSEAVKPSETEGAAVAASVTPAPPATPAQINGNNNEPSIVKEGGKQPKELPSTTSNAEAAAEAAANNGNSIEEHKQKKLGNDTTVTATETVTVTQHSVTSTDTDNIVTISDTNTDTDTKTSTGTSQKGRPVPVVNRHSVNNLNKNPFEDDDERIYEVPADANTADLPPGVLYRVKATYGYAKEDVDELSFEIGDLIRVIEYDDPEDQEEGWLMGQKEGTNEKGLFPANFTRPI
B3: Stoned B (stnB) (protein, UniProt Q24212 1-1262)
chain: MANPFLMDEDLDGCDAAANPFLMQSEPEPSSDNPFMAATVASNPFAFGADDLELGAEPEAEATHDNDLDPAMSFFGTTIEAEDDTLSLKSGAEEEDEGKKPPQSQPQLQSHAHPHPPPPRPLVPPQSTQDLISTVSSQLDETSSELLGRIPATRSPSPVSMRDLHSPSPTPDSGLADLLDVSVDSGSSAHTQGIEADLISGVAGGVRLDNPFAVPTAVPNIQAAVPLPATPIKQPPRPPPPRPAPPRPAPPGQAAPQRPPPPLAAVNPPPAAPEADDLLDMFGTTACKPAKPPPPKSKEDILSLFEQPHVPLSQPASKPDLLHDDLDETIGEGEPPEQEEPDTEQSNEISSRDEPVFTSLLIRPDESTHDITSQPQAATGLERQVNNMAAPSGTASTQRATTPDIEITTVEDLPRSDDEDEPEAMQEPETETKPQIEPDTEPEIVSEHSPPTERLVTQAALVDGELIAAEPEPEEMDTGLDFPLASSGQLSANPFASPDEEEPNFAPMPAAVANIFAVNDPDSQMETPKAPSHTANIFASDPDEFDAFSAKFDSVKKDNISIMDGFGGSGAITPTGGDAWGGSAFGSTTISANACGDTNSADDGFGNDDDDFYAMQAPARADSVESVDKDFSVVIRPMAEETSGVAPQLAPPPPPARGVNQAQTTSLPGLTVNPFEDVSGFPAPGLPPTDGTAIKRTDSQDTPQTPLYDEDVSQPLEEFPRLHYIGPGWEMQLRQPNKKKITGQRFWKKIVVRLVVQNDVPVVQLLNQAGDKQPFQELPLQPSYSVSEIGAQQYDQFGKIFTMKLQYIFYKERPGVRPGQVTKAERITNKLTKFAQYAIAGDYEGVKEFGSDLKKLGLPVEHAPQSSQLFKIGSMNYEDMKQFSVCIEEALFKIPALRERALTYKMEEVQVTAVDEITVEQDFEGKILKQIARVRLFFLAFLTGMPTIELGVNDMWRQGKEVVGRHDIIPVATEEWIRLEAVEFHSVVNQKEYERTRTIKFQPPDANYIELLRFRVRPPKNRELPLQLKATWCVSGNKVELRADILVPGFTSRKLGQIPCEDVSVRFPIPECWIYLFRVEKHFRYGSVKSAHRRTGKIKGIERILGAVDTLQESLIEVTSGQAKYEHHHRAIVWRCPRLPKEGQGAYTTHQLVCRMALTSYDQIPSELAPYAFVEFTMPATQVSHTTVRSVSVQDSDGDEPPEKYVRYLARHEYKVGIETTHGESTNAYLAATRPIREEPPTTATKPTASPVAPSDSDTDSN
B4: like-AP180 (lap) (protein, UniProt Q9VI75 1-468)
chain: MTMAGQTINDRLLAARHSLAGQGLAKSVCKATTEECIGPKKKHLDYLVHCTNEPNVSIPHLANLLIERSQNANWVVVYKSLITTHHLMAYGNERFMQYLASSNSTFNLSSFLDKGTVQDGGMGVPGGRMGYDMSPFIRRYAKYLNEKSLSYRAMAFDFCKVKRGKEEGSLRSMNAEKLLKTLPVLQAQLDALLEFDCQSNDLSNGVINMSFMLLFRDLIRLFACYNDGIINLLEKYFDMNKKHARDALDLYKKFLVRMDRVGEFLKVAENVGIDKGDIPDLTKAPSSLLDALEQHLATLEGRKVSAANTPTQSSSSAFGTAAASSKFDTTNGIDEQLKAQVLAEEEAAMNQYKSKVSSPTSSGAAGASAALTNPFLSSPPAAQAGQPIVDLFGAASAQPAAAAAATKASDDLLQLGNPFADMFDASGGGAAAVGATGNAGDGTAKYDGGAGSSPFDWGATDDDGGAAQ
B5: Sec6 (protein, UniProt Q9V8K2 1-738)
chain: MDLQQLEEQARQAALKDIQNMLQRPGQLEKVEQYRHRIARKKASVEALLKTGMQGQLDGVRVGLKQLETCMQDVREVRRRMDEVERLLRGVPEVYDALEVVREENTKHSQYATAMENLKHIFNVDASVQKTMALIEDDKLLNAHQCLADLENSRDDLLYELHKQPKQHASDKITLKRHFEKVDTVSQELEKKLRLILSRTLNTLRKKPTIIVTALRIIEREEKNDQFALQQQKVTGFLPPGRPKAWRRMIMDVLQQSVITRIEGSKLEERADNKMWLVRDLEILRQIILEDLRVVKSLCVPCFPPHYDIFGEYVKFYHEGLSSYLDNIVRSGLEGNEYVSMMAWVTHTYPGVELMSHPDLNVDVHRQIGTLLRPEHLKALEDEYLQNMQRNFQEWMTKAAETEKQEWFTETVPDQDEEYYHTSAPVIIFQMIDQHLQVTNTIHQELTFKALVMSIQQVEIFGQTYLKNVIELKEHHFRNRDQIKYFTHYIITIVNNSQQMVELAQQMKQLYWPKSRTEHYEDFERLLATFQRIRAHAASYLLEEAFLDMECHFNDLFTAKWLASNIAVDTICVTLDDYFQDYNHLRPNNFEMVINEAQKLLAKRYIRALLSKRLSKPRAECDAITRKIKTEAKRFKLFFEKIAPKISLSDSPLDLISTLSALLSSDIELLVLDLHTLLGSYPSLNEDHLVRLFYIRNDVKAAEVREKVQDAMKSKKAMVSIAKQDCIFKEIVFSDKLW
B6: Sec8 (protein, UniProt Q9VNH6 1-985)
chain: MDAPPPTKPPRGVKYGKDESAGCGFLVNVIKSLGFSETTEERQKEKQKIEAEFKRSDLRLNELVSRHDQQLTQVLPLFSQVSSEVTASRERIHAVKENLGVCKRLLQCRRDELRKMWMDAVQHKYVLEMLEQIQELRKVPQRVVGYTAKRQYLHASKALTDALTTLNGPLQAVEGLSDLRTDLQTRRQQLYQRLHEELVTQVYTNSANEALSSFQRTNSSRLNSSFTRGIGARRSTDRIEANARVRKALAEMAQSFDLDKAEVIEDADLIYPELSMSYFVAIIVESFGMLHKVPDSLETLRVQIQTELLNVVRHTTHQLSVSGATADTNPLLSLLEVIFKQFKAIAKTHSLLLKNYLSVGQKYSVVGPQPYDLTDFWAQAQSVLQLLLTDYLDIQNAAADESAQTGFSEPTSNINSYFLRRKVPSTKRSMFKFDKSSHVGTSNNSDAFKEHRRNASDASVDDNLAGQLGGSGKGSTSGLFPHEKKQREKILICTPDQSIITKVYLPLMGYIKEIENFMKCKPGQPCSLHDFLDNYIKDTFLTKGHNRNLQLTIESLSKNQDAWRTIISPEEIKALNLSRPLLQSTVMVERRLMETKNLIQDLPCYSEDLLKMVCALLKAYREICQAAYRGIVQPDSEDKRIYSVAWLKDEDISRFLKTLPNWTDLKTYSQKSRHNRKLHRGSFEPSEEESPLQVQQRNIREAEMLTSNLGEGGITQQEILVEISVLKELAILQESMEWFSCRVSEFANDLRRPLVNGLNAVPAECGADIAVKDGTIKVMTNLALEFDELANTCLLVLHLEVRVQCFHYLRSKSSVRTNSYVGSKDDILEPDRQVQVLTKRLSEMDEAFSATLHPRKTRYIFEGLAHLASRILIQASNYLEHIDQITVQRMCRNAIALQQTLSNITASREVALDQARHFYELLCMEPDEILNALLERGTQFSEMQLLNALQLSCKSFGITDANLLASYQQKLSDILGAKPSKGVVV
B7: Sec10 (protein, UniProt Q9XTM1 1-710)
chain: MLSQYMEEFEQEPFEVGEFIERLTWRTNNELQNSEDFHPVALHDTFIQTIKDLKILQEKQQSKCERLEESLRQEKESHAKKIAKLQERHQTAIDVFGQLDEKINSVAGKIMHLGEQLENVNTPRSRSVEAQKLLNFMSEFLAAGPVIVNDIFADAARLSEAADVIQKLYAISQDLPPGNFAESKRKIEKKYDEVERRLIEEFATAQKSEDIERMKTLAQILSQFKGYTQCVDAYIEQSQMQPYSGKDIFIGIVPLCKHHYEIIQKVFANPQQVMSKFILNIYQLKLHQYAMTKLEDKKDEEKYLRTLYELYSRTLKLSTDLQIYMSTIDDDLLQKLTQQIFIKHLAGYAEMETKCLTAKCSTELEKFYASKKHQKTATTKGFRRNMEVLIATRANINIAAIEDYGGETFLSEELAINMLQEAKASLKRCRLLSNETELPGNAIKLNDILLRFLMHEHVDYALELGLQAVPLAEGRVFPQLYFFDVVQKTNIIVHLLDKLCHTSVIPCVSNTPKYSDYVFKKRILMEQIETKLDQGLDRSISAVIGWVKVYLQYEQKKTDYKPETDVDTISSAACLQVVQNLQPVIVQIKKCVDGENLQNVLTEFGTRLHRVIYDHLQTMQFNTAGAMCAICDVNEYRKCIRELDSPLVTQLFDILHALCNLLLVKPQNLQEVCTGDTLNYLDKSVVRQFIQLRTDFRIIKNTNYLKGIIE

molecular target: GFP-tagged, full-length Dystroglycan (Dg::GFP) (Drosophila melanogaster); assay: affinity purification with mass spectrometry; Dg::GFP immunoprecipitated with GFP-Trap beads (anti-GFP) from lysates of adult fly heads in RIPA buffer (50 mM Tris-HCl pH 7.5, 125 mM NaCl, 0.5% NP40, 0.25% Na-deoxycholate); SDS-PAGE, in-gel Lys-C digestion, LC-MS/MS; proteins enriched at least twofold over control in two biological replicates taken as Dg interactors

binding, binds:
B1, B2, B3, B4, B5, B6, B7

No constants are given. Whether binding was seen depends on the method and setting. In cells and extracts the contact can be indirect. Here binding means that the protein was enriched with, or labelled near, the bait; the list need not be complete.
